Laboratory results published in US6228611.
The exact form of at least one protein or probe is not confirmed. For some of these results: Negatives hold for the conditions tested. For some of these results: A weaker result is weaker than the reference pair of the same experiment. For some of these results: Where cells or extracts were used, other partners may take part. For some of these results: Whether high values mean tight binding is not given here for every scale.

Chains of the proteins cited; added tags and fusions are not shown. A line that says so, or that is headed by a name, gives the form on record, which may keep a tag or linker.
UniProt Q03267, other isoform, or with tags, fused parts or gaps: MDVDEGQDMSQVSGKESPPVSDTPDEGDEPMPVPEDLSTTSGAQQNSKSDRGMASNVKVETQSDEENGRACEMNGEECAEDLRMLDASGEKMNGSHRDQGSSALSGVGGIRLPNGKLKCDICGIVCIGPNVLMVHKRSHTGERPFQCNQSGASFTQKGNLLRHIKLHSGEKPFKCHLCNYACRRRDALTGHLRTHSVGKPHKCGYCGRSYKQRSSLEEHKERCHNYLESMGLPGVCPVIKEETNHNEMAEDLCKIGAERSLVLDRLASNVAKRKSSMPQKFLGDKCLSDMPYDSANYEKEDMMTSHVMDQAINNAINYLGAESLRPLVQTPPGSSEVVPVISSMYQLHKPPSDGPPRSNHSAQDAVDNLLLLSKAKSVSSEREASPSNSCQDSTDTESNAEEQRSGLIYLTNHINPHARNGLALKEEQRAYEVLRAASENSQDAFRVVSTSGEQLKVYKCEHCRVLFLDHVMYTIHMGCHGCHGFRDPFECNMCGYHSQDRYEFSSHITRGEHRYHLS
mIk-3 (Ikaros isoform 3) (Mus musculus), one chain, as listed by the source: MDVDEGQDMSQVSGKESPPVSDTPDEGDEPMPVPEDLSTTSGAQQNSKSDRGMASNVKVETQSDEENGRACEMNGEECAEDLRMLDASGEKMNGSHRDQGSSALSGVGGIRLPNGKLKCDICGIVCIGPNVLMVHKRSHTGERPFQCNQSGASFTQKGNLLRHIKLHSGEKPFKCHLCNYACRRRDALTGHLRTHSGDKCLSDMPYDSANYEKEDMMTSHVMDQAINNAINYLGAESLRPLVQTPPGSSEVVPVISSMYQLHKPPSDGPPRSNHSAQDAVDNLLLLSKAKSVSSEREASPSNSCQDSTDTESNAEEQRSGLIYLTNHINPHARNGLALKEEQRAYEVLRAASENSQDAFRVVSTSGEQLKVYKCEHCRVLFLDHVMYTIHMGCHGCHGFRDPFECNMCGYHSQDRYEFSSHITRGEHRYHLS
mIk-4 (Ikaros isoform 4) (Mus musculus), one chain, as listed by the source: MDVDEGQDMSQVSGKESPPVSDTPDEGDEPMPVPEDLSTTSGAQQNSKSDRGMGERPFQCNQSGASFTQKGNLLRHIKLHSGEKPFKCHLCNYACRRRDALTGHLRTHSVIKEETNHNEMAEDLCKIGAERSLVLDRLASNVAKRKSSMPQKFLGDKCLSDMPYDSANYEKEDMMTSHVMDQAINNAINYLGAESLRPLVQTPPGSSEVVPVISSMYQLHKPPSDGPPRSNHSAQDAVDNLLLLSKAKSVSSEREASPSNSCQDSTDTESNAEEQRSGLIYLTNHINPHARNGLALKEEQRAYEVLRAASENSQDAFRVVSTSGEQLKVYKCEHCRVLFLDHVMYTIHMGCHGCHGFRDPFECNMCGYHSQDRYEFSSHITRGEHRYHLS
mIk-2 (Ikaros isoform 2) (Mus musculus), one chain, as listed by the source: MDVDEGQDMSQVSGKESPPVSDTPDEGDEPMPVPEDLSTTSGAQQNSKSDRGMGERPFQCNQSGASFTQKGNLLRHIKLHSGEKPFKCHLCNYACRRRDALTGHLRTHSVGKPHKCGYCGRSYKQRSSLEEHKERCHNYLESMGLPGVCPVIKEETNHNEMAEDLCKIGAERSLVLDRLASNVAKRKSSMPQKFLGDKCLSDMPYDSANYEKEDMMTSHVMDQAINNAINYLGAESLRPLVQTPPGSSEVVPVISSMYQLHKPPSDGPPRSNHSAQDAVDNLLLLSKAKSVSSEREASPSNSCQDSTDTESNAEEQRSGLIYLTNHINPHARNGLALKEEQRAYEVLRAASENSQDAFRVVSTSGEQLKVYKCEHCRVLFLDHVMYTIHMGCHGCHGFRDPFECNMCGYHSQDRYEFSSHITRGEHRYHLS
Ikaros proteins, endogenous (EL4 nuclear extract) (Mus musculus), one chain, as listed by the source: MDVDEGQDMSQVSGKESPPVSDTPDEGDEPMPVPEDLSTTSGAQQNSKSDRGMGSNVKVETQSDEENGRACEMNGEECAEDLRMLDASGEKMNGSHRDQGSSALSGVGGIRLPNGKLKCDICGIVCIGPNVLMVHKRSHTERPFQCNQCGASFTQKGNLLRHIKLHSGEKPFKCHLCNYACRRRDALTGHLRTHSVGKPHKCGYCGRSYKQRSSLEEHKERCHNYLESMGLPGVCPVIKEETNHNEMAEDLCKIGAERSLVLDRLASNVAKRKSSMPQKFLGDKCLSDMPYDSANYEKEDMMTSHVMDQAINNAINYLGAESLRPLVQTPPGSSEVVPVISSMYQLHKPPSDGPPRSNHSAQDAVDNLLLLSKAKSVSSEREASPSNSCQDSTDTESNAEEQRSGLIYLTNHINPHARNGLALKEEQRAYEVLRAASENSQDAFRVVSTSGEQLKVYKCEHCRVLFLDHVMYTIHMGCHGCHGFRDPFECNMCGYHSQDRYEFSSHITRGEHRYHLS
mIk-5 (Ikaros isoform 5) (Mus musculus), one chain, as listed by the source: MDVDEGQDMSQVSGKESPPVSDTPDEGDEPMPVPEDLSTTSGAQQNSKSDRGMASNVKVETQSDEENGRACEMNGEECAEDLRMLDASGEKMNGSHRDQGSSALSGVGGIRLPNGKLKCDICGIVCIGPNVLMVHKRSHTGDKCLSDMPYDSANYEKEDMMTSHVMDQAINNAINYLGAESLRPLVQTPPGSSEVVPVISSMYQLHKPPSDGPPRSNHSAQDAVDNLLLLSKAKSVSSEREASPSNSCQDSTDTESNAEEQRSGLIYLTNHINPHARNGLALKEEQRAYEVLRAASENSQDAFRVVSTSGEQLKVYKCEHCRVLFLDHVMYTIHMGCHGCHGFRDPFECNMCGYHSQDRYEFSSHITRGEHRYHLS

Legend:
[1] = system: mIk-3 (Ikaros isoform 3) (Mus musculus); experiment: SELEX; settings: purified recombinant protein; protein details: GST fusion
[2] = system: mIk-2 (Ikaros isoform 2) (Mus musculus); experiment: SELEX; settings: purified recombinant protein; protein details: GST fusion
[3] = system: mIk-2 (transfected) (Mus musculus); experiment: activity in cells; settings: protein in cells, only the site is given
[4] = molecular target: mIk-1 (Ikaros isoform 1) (Mus musculus) (UniProt Q03267); experiment: EMSA; settings: purified recombinant protein, protein details: GST fusion
[5] = system: mIk-2 (Ikaros isoform 2) (Mus musculus); experiment: EMSA; settings: purified recombinant protein, protein details: GST fusion
[6] = system: mIk-3 (Ikaros isoform 3) (Mus musculus); experiment: EMSA; settings: purified recombinant protein, protein details: GST fusion
[7] = system: mIk-4 (Ikaros isoform 4) (Mus musculus); experiment: EMSA; settings: purified recombinant protein, protein details: GST fusion
[8] = system: mIk-5 (Ikaros isoform 5) (Mus musculus); experiment: EMSA; settings: purified recombinant protein, protein details: GST fusion
[9] = molecular target: mIk-1 (Ikaros isoform 1) (Mus musculus) (UniProt Q03267); experiment: SELEX; settings: purified recombinant protein; protein details: GST fusion
[10] = molecular target: mIk-1 (transfected) (Mus musculus) (UniProt Q03267); experiment: activity in cells; settings: 4 copies tkCAT, NIH-3T3, protein in cells, only the site is given
[11] = system: Ikaros proteins, endogenous (EL4 nuclear extract) (Mus musculus); experiment: EMSA; settings: two complexes, supershifted by Ikaros antisera; tested with IK-BS4 and IK-BS7 competitors; protein in an extract
[12] = molecular target: mIk-1 (Ikaros isoform 1) (Mus musculus) (UniProt Q03267); experiment: footprint; settings: methylation interference: G2,G3,G4; bottom strand G10 full, 7-9 partial; purified recombinant protein; protein details: GST fusion
[13] = system: mIk-2 (Ikaros isoform 2) (Mus musculus); experiment: footprint; settings: methylation interference: G2,G3,G4, G-5, A5; bottom strand G10; purified recombinant protein; protein details: GST fusion
[14] = system: mIk-3 (Ikaros isoform 3) (Mus musculus); experiment: footprint; settings: methylation interference: G2,G3,G4; bottom strand 7-10; purified recombinant protein; protein details: GST fusion
[15] = system: mIk-4 (Ikaros isoform 4) (Mus musculus); experiment: footprint; settings: methylation interference: G2,G3,G4; bottom strand 8-12; purified recombinant protein; protein details: GST fusion
[16] = did not bind any tested oligomers, variant of IK-BS1
[17] = did not bind any tested oligomers
[18] = binding abrogated, variant of IK-BS1

GGTGTTGGGAATGCTGGAATGCCTA (double strand) [IK3-6]
selection result [1]: selected

AGGCGTTTGGGATGTATTTACACC (double strand) [IK2-22]
selection result [2]: selected

AGAAGTTTCCATGACATCATGAATGGGGGTGGCAGAGA (double strand) [deltaA element (reporter, reiterated)]
activity on this sequence (fold activation) ([3]; CV1 cells): 8

TCAGCTTTTGGGATTACCCTGTCA (double strand) [IK-BS3]
binding result ([4]; variant of IK-BS1): binds more weakly | binding result ([5]; no effect on binding, variant of IK-BS1): binds | binding result ([6]; variant of IK-BS1): no binding | binding result ([7]; variant of IK-BS1): no binding | binding result [8, 16]: no binding

GGTGTGGGAAAGATATAGCCGCCT (double strand) [IK2-6]
selection result [2]: selected

GGTGTTCCTGGGAATGTTCGGCCTA (double strand) [IK3-3]
selection result [1]: selected

GGTGTAAGGAATACTGGAATGCCTA (double strand) [IK3-23]
selection result [1]: selected

GGTGTAAAAATGGGAACAAAGCCT (double strand) [IK2-5]
selection result [2]: selected

AGGCGATTTTGGGAATTTCACACC (double strand) [Ik1-1]
selection result [9]: selected

GGTGTTCTTCGGGATGGCTTGCCT (double strand) [IK2-32]
selection result [2]: selected

TCAGCTTTTGGGAATTCCCTGTCA (double strand) [IK-BS6]
binding result ([4]; similar to IK-BS1): binds | binding result ([5]; similar to IK-BS1): binds | binding result ([6]; similar to IK-BS1): binds | binding result [7]: no binding | binding result [8, 17]: no binding

AGGCTTGGGATTGGGAATAACACC (double strand) [IK3-2]
selection result [1]: selected

GGTGTGGAATCGGGAATTTAGCCT (double strand) [Ik1-19]
selection result [9]: selected

GTTTCCATGACATCATGATGGGGGT (double strand) [deltaA element of CD3delta enhancer]
binding result ([4]; two complexes): binds | binding result ([5]; two complexes): binds | binding result ([6]; two complexes): binds | binding result [7]: binds | binding result [8]: binds

GGTGTCGGGAATTATTTTAGGCCT (double strand) [IK2-4]
selection result [2]: selected

GGTGTATCCCGGGAATACCGGCCTA (double strand) [IK3-14]
selection result [1]: selected

TCAGCTTTTGGGAAAAACCTGTCA (double strand) [IK-BS9]
binding signal (fold difference from IK-BS1/BS2) ([4]; variant of IK-BS1): 2 | binding result ([5]; not significantly affected, variant of IK-BS1): binds | binding result ([6]; variant of IK-BS1): no binding | binding result ([7]; variant of IK-BS1): no binding | binding result [8, 16]: no binding | activity on this sequence (fold activation) ([10]; variant of IK-BS1): 3.3 | activity on this sequence ([3]; 4 copies tkCAT, NIH-3T3, variant of IK-BS1): active

GGTGTACGGTTGGGAATGCGGCCT (double strand) [IK2-1]
selection result [2]: selected

GGTGTTTAACCAATTGGGAAGCCT (double strand) [IK2-7]
selection result [2]: selected

GGTGTTGGGATTGGGAATGTGCCT (double strand) [IK2-3]
selection result [2]: selected

GGTGTAAATTGGGAATGCTGTGCCT (double strand) [Ik1-3]
selection result [9]: selected

AGGCATGGGAATGTCTGGAACACC (double strand) [Ik1-4]
selection result [9]: selected

GGTGTAAATCGGGAATTCCGGCCTA (double strand) [IK3-17]
selection result [1]: selected

TCAGCTTTTGGGAATACCCTGTCA (double strand) [IK-BS1]
binding signal (fold lower complex than mIk-1) ([5]; 20 uM ZnCl2): 3.4 | binding signal (fold lower complex than mIk-1) ([6]; 20 uM ZnCl2, though text ranks mIk-2 before mIk-3): 1.7 | binding result [7]: no binding | binding result [8]: no binding | activity on this sequence (fold activation) [10]: 11 | activity on this sequence ([3]; 4 copies tkCAT, NIH-3T3): active

GGTGTAGGAATGGGAATACAGCCT (double strand) [IK2-2]
selection result [2]: selected

AGGCCATGGGAATGAAGGAACACC (double strand) [Ik1-2]
selection result [9]: selected

AGGCTGGGAATGCTGGGAAACACC (double strand) [IK3-5]
selection result [1]: selected

AGGCAAATTTGGGAATACTACACC (double strand) [Ik1-10]
selection result [9]: selected

AGGCGTGGGAATATCAGGACACC (double strand) [IK3-4]
selection result [1]: selected

GGTGTAATTGGGAATTTTTAGCCTA (double strand) [IK3-7]
selection result [1]: selected

TCAGCTTTTGGGAATGTATTCCCTGTCA (double strand) [IK-BS4]
binding result [11]: binds | binding signal (fold over IK-BS1) [4]: 2.3 | binding signal (fold over IK-BS1) ([5]; slower, higher-order complex): 6.3 | binding signal (fold over IK-BS1) [6]: 3.5 | binding result ([7]; high affinity, cooperative): binds | binding result [8]: no binding

AGGCTTTTGGGAATACCAGACACC (double strand) [IK3-1]
selection result [1]: selected

TCAGCTTTTGGGAATCTCCTGTCA (double strand) [IK-BS2]
binding result ([4]; similar to IK-BS1): binds | binding result ([5]; similar to IK-BS1, higher-order complex): binds | binding result ([6]; greatly reduced): binds more weakly | binding result [7]: binds | binding result [8, 17]: no binding | binding result [12]: binds | binding result [13]: binds | binding result [14]: binds | binding result [15]: binds | activity on this sequence (fold activation) [10]: 19 | activity on this sequence (fold activation) ([3]; 4 copies tkCAT, NIH-3T3): 11

AGGCATTAAAATGGGAATAACACC (double strand) [Ik1-5]
selection result [9]: selected

GGTGTAGGAATGCGGTAATTGCCT (double strand) [Ik1-6]
selection result [9]: selected

TCAGCTTTTGAGAATACCCTGTCA (double strand) [IK-BS7]
binding result [4, 18]: no binding | binding result [5, 18]: no binding | binding result [6, 18]: no binding | binding result [7, 18]: no binding | binding result [8, 16]: no binding

GGTGTGGGAATGTCACTTCAGCCT (double strand) [Ik1-8]
selection result [9]: selected

GGTGTTCATTGGGATAGCATGCCT (double strand) [IK2-20]
selection result [2]: selected

TCAGCGGGGGGGAATACCCTGTCA (double strand) [IK-BS5]
binding result ([4]; variant of IK-BS1): binds more weakly | binding result ([5]; variant of IK-BS1): binds more weakly | binding result ([6]; variant of IK-BS1): binds more weakly | binding result [8, 16]: no binding

GGTGTGGGAATAACTGGGATGCCT (double strand) [Ik1-7]
selection result [9]: selected
